# This is one part of the list.
# How the values were obtained:
# Assay in all cases: glycan array binding signal (z-score within array); higher = stronger binding
# Details in all cases: glycan notation: IUPAC condensed, linker removed
# [1] = biological target: Neu5Ac(a2-3)Gal(b1-3)GalNAc
# Summary of the method: (§1)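 Glycan array data were curated from 3228 arrays in the Consortium for Functional Glycomics database and kept only where the protein sequence was available. Glycan names were converted to IUPAC-condensed notation, and columns mapping to the same glycan were averaged. The binding signal is a within-array Z-score, averaged across arrays of the same protein sequence at different concentrations or buffers and across linkers. Negative Z-scores can be read as non-binding.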
# [2] = biological target: Neu5Ac(a2-3)Gal(b1-3)GalNAc(b1-3)Gal(a1-4)Gal(b1-4)Glc
# Summary of the method: as §1
# [3] = biological target: Neu5Ac(a2-3)Gal(b1-3)GalNAc(b1-4)Gal(b1-4)Glc
# Summary of the method: as §1
# [4] = biological target: Neu5Ac(a2-3)Gal(b1-3)GalNAc(b1-4)[Neu5Ac(a2-3)]Gal(b1-4)Glc
# Summary of the method: as §1
# [5] = biological target: Neu5Ac(a2-3)Gal(b1-3)GalNAc(b1-4)[Neu5Ac(a2-8)Neu5Ac(a2-3)]Gal(b1-4)Glc
# Summary of the method: as §1
# [6] = biological target: Neu5Ac(a2-3)Gal(b1-3)GalNAc6S
# Summary of the method: as §1
# [7] = biological target: Neu5Ac(a2-3)Gal(b1-3)GlcNAc
# Summary of the method: as §1
# [8] = biological target: Neu5Ac(a2-3)Gal(b1-3)GlcNAc(b1-2)Man
# Summary of the method: as §1
# [9] = biological target: Neu5Ac(a2-3)Gal(b1-3)GlcNAc(b1-2)Man(a1-3)[GlcNAc(b1-4)][Neu5Ac(a2-3)Gal(b1-3)GlcNAc(b1-2)Man(a1-6)]Man(b1-4)GlcNAc(b1-4)GlcNAc
# Summary of the method: as §1
# [10] = biological target: Neu5Ac(a2-3)Gal(b1-3)GlcNAc(b1-2)Man(a1-3)[Neu5Ac(a2-3)Gal(b1-3)GlcNAc(b1-2)Man(a1-6)]Man(b1-4)GlcNAc(b1-4)GlcNAc
# Summary of the method: as §1
# [11] = biological target: Neu5Ac(a2-3)Gal(b1-3)GlcNAc(b1-2)[Neu5Ac(a2-3)Gal(b1-3)GlcNAc(b1-4)]Man(a1-6)[Neu5Ac(a2-3)Gal(b1-3)GlcNAc(b1-2)Man(a1-3)]Man(b1-4)GlcNAc(b1-4)GlcNAc
# Summary of the method: as §1
# [12] = biological target: Neu5Ac(a2-3)Gal(b1-3)GlcNAc(b1-3)Gal(b1-3)GlcNAc
# Summary of the method: as §1
# [13] = biological target: Neu5Ac(a2-3)Gal(b1-3)GlcNAc(b1-3)Gal(b1-4)GlcNAc
# Summary of the method: as §1
# [14] = biological target: Neu5Ac(a2-3)Gal(b1-3)GlcNAc(b1-3)GalNAc
# Summary of the method: as §1
# [15] = biological target: Neu5Ac(a2-3)Gal(b1-3)GlcNAc(b1-6)GalNAc
# Summary of the method: as §1
# [16] = biological target: Neu5Ac(a2-3)Gal(b1-3)GlcNAc6S
# Summary of the method: as §1
# [17] = biological target: Neu5Ac(a2-3)Gal(b1-3)[Fuc(a1-4)]GlcNAc
# Summary of the method: as §1
# [18] = biological target: Neu5Ac(a2-3)Gal(b1-3)[Fuc(a1-4)]GlcNAc(b1-3)Gal(b1-3)[Fuc(a1-4)]GlcNAc
# Summary of the method: as §1
# [19] = biological target: Neu5Ac(a2-3)Gal(b1-3)[Fuc(a1-4)]GlcNAc(b1-3)Gal(b1-4)[Fuc(a1-3)]GlcNAc
# Summary of the method: as §1
# [20] = biological target: Neu5Ac(a2-3)Gal(b1-3)[GlcNAc(b1-6)]GalNAc
# Summary of the method: as §1
# [21] = biological target: Neu5Ac(a2-3)Gal(b1-3)[Neu5Ac(a2-6)]GalNAc
# Summary of the method: as §1
# [22] = biological target: Neu5Ac(a2-3)Gal(b1-3)[Neu5Ac(a2-6)]GlcNAc(b1-3)[Fuc(a1-3)[Gal(b1-4)]GlcNAc(b1-6)]Gal(b1-4)Glc
# Summary of the method: as §1
# [23] = biological target: Neu5Ac(a2-3)Gal(b1-3)]Neu5Ac(a2-3)Gal(b1-4)]GlcNAc
# Summary of the method: as §1
# Neu5Ac(a2-3)Gal(b1-4)Glc = biological target: Neu5Ac(a2-3)Gal(b1-4)Glc
# Summary of the method: as §1
# [24] = biological target: Neu5Ac(a2-3)Gal(b1-4)GlcNAc
# Summary of the method: as §1
# [25] = biological target: Neu5Ac(a2-3)Gal(b1-4)GlcNAc(b1-2)Man
# Summary of the method: as §1
# [26] = biological target: Neu5Ac(a2-3)Gal(b1-4)GlcNAc(b1-2)Man(a1-3)[GlcNAc(b1-4)][Neu5Ac(a2-3)Gal(b1-4)GlcNAc(b1-2)Man(a1-6)]Man(b1-4)GlcNAc(b1-4)GlcNAc
# Summary of the method: as §1
# [27] = biological target: Neu5Ac(a2-3)Gal(b1-4)GlcNAc(b1-2)Man(a1-3)[Neu5Ac(a2-3)Gal(b1-4)GlcNAc(b1-2)Man(a1-6)]Man(b1-4)GlcNAc(b1-4)GlcNAc
# Summary of the method: as §1
# [28] = biological target: Neu5Ac(a2-3)Gal(b1-4)GlcNAc(b1-2)Man(a1-3)[Neu5Ac(a2-3)Gal(b1-4)GlcNAc(b1-2)Man(a1-6)]Man(b1-4)GlcNAc(b1-4)[Fuc(a1-6)]GlcNAc
# Summary of the method: as §1
# [29] = biological target: Neu5Ac(a2-3)Gal(b1-4)GlcNAc(b1-2)Man(a1-3)[Neu5Ac(a2-6)Gal(b1-4)GlcNAc(b1-2)Man(a1-6)]Man(b1-4)GlcNAc(b1-4)GlcNAc
# Summary of the method: as §1
# [30] = biological target: Neu5Ac(a2-3)Gal(b1-4)GlcNAc(b1-2)[Neu5Ac(a2-3)Gal(b1-4)GlcNAc(b1-4)]Man(a1-3)[GlcNAc(b1-4)][Neu5Ac(a2-3)Gal(b1-4)GlcNAc(b1-2)[Neu5Ac(a2-3)Gal(b1-4)GlcNAc(b1-6)]Man(a1-6)]Man(b1-4)GlcNAc(b1-4)GlcNAc
# Summary of the method: as §1
# [31] = biological target: Neu5Ac(a2-3)Gal(b1-4)GlcNAc(b1-2)[Neu5Ac(a2-3)Gal(b1-4)GlcNAc(b1-4)]Man(a1-3)[GlcNAc(b1-4)][Neu5Ac(a2-3)Gal(b1-4)GlcNAc(b1-4)Man(a1-6)]Man(b1-4)GlcNAc(b1-4)GlcNAc
# Summary of the method: as §1
# [32] = biological target: Neu5Ac(a2-3)Gal(b1-4)GlcNAc(b1-2)[Neu5Ac(a2-3)Gal(b1-4)GlcNAc(b1-6)]Man(a1-6)[Neu5Ac(a2-3)Gal(b1-4)GlcNAc(b1-2)Man(a1-3)][GlcNAc(b1-4)]Man(b1-4)GlcNAc(b1-4)GlcNAc
# Summary of the method: as §1
# [33] = biological target: Neu5Ac(a2-3)Gal(b1-4)GlcNAc(b1-3)Gal
# Summary of the method: as §1
# [34] = biological target: Neu5Ac(a2-3)Gal(b1-4)GlcNAc(b1-3)Gal(b1-3)GlcNAc
# Summary of the method: as §1
# [35] = biological target: Neu5Ac(a2-3)Gal(b1-4)GlcNAc(b1-3)Gal(b1-4)GlcNAc
# Summary of the method: as §1
# [36] = biological target: Neu5Ac(a2-3)Gal(b1-4)GlcNAc(b1-3)Gal(b1-4)GlcNAc(b1-2)Man(a1-3)[Neu5Ac(a2-3)Gal(b1-4)GlcNAc(b1-3)Gal(b1-4)GlcNAc(b1-2)Man(a1-6)]Man(b1-4)GlcNAc(b1-4)GlcNAc
# Summary of the method: as §1
# [37] = biological target: Neu5Ac(a2-3)Gal(b1-4)GlcNAc(b1-3)Gal(b1-4)GlcNAc(b1-3)Gal(b1-4)GlcNAc
# Summary of the method: as §1
# [38] = biological target: Neu5Ac(a2-3)Gal(b1-4)GlcNAc(b1-3)Gal(b1-4)GlcNAc(b1-3)Gal(b1-4)GlcNAc(b1-2)Man(a1-3)[Neu5Ac(a2-3)Gal(b1-4)GlcNAc(b1-3)Gal(b1-4)GlcNAc(b1-3)Gal(b1-4)GlcNAc(b1-2)Man(a1-6)]GalNAc
# Summary of the method: as §1
# [39] = biological target: Neu5Ac(a2-3)Gal(b1-4)GlcNAc(b1-3)Gal(b1-4)GlcNAc(b1-3)GalNAc
# Summary of the method: as §1
# [40] = biological target: Neu5Ac(a2-3)Gal(b1-4)GlcNAc(b1-3)Gal(b1-4)GlcNAc(b1-3)[Neu5Ac(a2-3)Gal(b1-4)GlcNAc(b1-3)Gal(b1-4)GlcNAc(b1-6)]GalNAc
# Summary of the method: as §1
# [41] = biological target: Neu5Ac(a2-3)Gal(b1-4)GlcNAc(b1-3)Gal(b1-4)GlcNAc(b1-6)[Gal(b1-3)]GalNAc
# Summary of the method: as §1
# [42] = biological target: Neu5Ac(a2-3)Gal(b1-4)GlcNAc(b1-3)Gal(b1-4)[Fuc(a1-3)]GlcNAc
# Summary of the method: as §1
# [43] = biological target: Neu5Ac(a2-3)Gal(b1-4)GlcNAc(b1-3)GalNAc
# Summary of the method: as §1
# [44] = biological target: Neu5Ac(a2-3)Gal(b1-4)GlcNAc(b1-3)[Neu5Ac(a2-3)Gal(b1-4)GlcNAc(b1-6)]GalNAc
# Summary of the method: as §1
binder,measurement,setting,value
Loc1 (Escherichia coli) (protein) APCALTNVGEQRGTYILKPLSMKGNLTAEKIENTGNIIECTDLQETTNAIKVHFLTQNALKFKVGSRHYIINFPFEYDGKKIELPGKSSYNLEEMLSAINFTIPYSIASVSDSSNTADIFPGTPFPLLFEIEVSSCTGNNTNCNSVRFNYNLNTILQVNLMTHHHHHH,glycan array binding signal (z-score),[1],-0.478
same,glycan array binding signal (z-score),[2],-0.398
same,glycan array binding signal (z-score),[3],-0.149
same,glycan array binding signal (z-score),[4],-0.357
same,glycan array binding signal (z-score),[5],-0.945
same,glycan array binding signal (z-score),[6],-0.388
same,glycan array binding signal (z-score),[7],-0.838
same,glycan array binding signal (z-score),[8],-0.478
same,glycan array binding signal (z-score),[9],-0.595
same,glycan array binding signal (z-score),[10],0.212
same,glycan array binding signal (z-score),[11],0.502
same,glycan array binding signal (z-score),[12],-0.471
same,glycan array binding signal (z-score),[13],-0.29
same,glycan array binding signal (z-score),[14],-0.063
same,glycan array binding signal (z-score),[15],0.181
same,glycan array binding signal (z-score),[16],-0.26
same,glycan array binding signal (z-score),[17],0.062
same,glycan array binding signal (z-score),[18],0.472
same,glycan array binding signal (z-score),[19],-1.46
same,glycan array binding signal (z-score),[20],-0.26
same,glycan array binding signal (z-score),[21],-0.234
same,glycan array binding signal (z-score),[22],0.125
same,glycan array binding signal (z-score),[23],-0.521
same,glycan array binding signal (z-score),Neu5Ac(a2-3)Gal(b1-4)Glc,-0.786
same,glycan array binding signal (z-score),[24],-0.967
same,glycan array binding signal (z-score),[25],0.657
same,glycan array binding signal (z-score),[26],0.255
same,glycan array binding signal (z-score),[27],-0.611
same,glycan array binding signal (z-score),[28],-0.578
same,glycan array binding signal (z-score),[29],-0.166
same,glycan array binding signal (z-score),[30],0.298
same,glycan array binding signal (z-score),[31],-0.745
same,glycan array binding signal (z-score),[32],-0.322
same,glycan array binding signal (z-score),[33],-0.004
same,glycan array binding signal (z-score),[34],-0.763
same,glycan array binding signal (z-score),[35],0.155
same,glycan array binding signal (z-score),[36],0.087
same,glycan array binding signal (z-score),[37],-0.064
same,glycan array binding signal (z-score),[38],2.75
same,glycan array binding signal (z-score),[39],-0.089
same,glycan array binding signal (z-score),[40],-0.543
same,glycan array binding signal (z-score),[41],0.747
same,glycan array binding signal (z-score),[42],0.62
same,glycan array binding signal (z-score),[43],-0.098
same,glycan array binding signal (z-score),[44],-0.884

# Two entries from above, with bars between the fields.
binder | measurement | setting | value
Loc1 (Escherichia coli) (protein) APCALTNVGEQRGTYILKPLSMKGNLTAEKIENTGNIIECTDLQETTNAIKVHFLTQNALKFKVGSRHYIINFPFEYDGKKIELPGKSSYNLEEMLSAINFTIPYSIASVSDSSNTADIFPGTPFPLLFEIEVSSCTGNNTNCNSVRFNYNLNTILQVNLMTHHHHHH | glycan array binding signal (z-score) | [22] | 0.125
same | glycan array binding signal (z-score) | [23] | -0.521
